Measured data: PubChem BioAssay AID1259405 (NCATS, 2018)
Here is a random part of about 50,000 reagents tested. About 4,000 of all reagents (8%) were called active. 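Mouse siRNA library applied to hamster cells; one well for each siRNA.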 Entries without a mark were called inactive. Reagents against one gene are numbered here.

Purpose: 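Knock-downs that lift recombinant protein yield in hamster ovary cells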 (primary screen)
Cell system: Chinese hamster CHO-K1 ovary cells with stable secreted eGFP expression
Knock-down reagent: single siRNA against mouse genes, 0.8 pmol siRNA per well (2 µl of 400 nM stock)
Time to read-out: 3 days
Detection: 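Per-well intracellular GFP measured by laser scanning cytometry, plus viability from ATP luminescence, each relative to plate median of non-targeting control wells, in %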
Reading the numbers: GFP, % of control: higher = more GFP per well, higher productivity; viability (ATP), % of control: higher = more viable cells (more ATP)
Active means: 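Called active when intracellular GFP, relative to negative control, is at or above 120%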

Ptpn4 (GeneID 19258) #1 gave GFP, % of control 69.2; viability (ATP), % of control 93.2.
Against Ptpn4 (GeneID 19258) #2, the values are GFP, % of control 71.7; viability (ATP), % of control 97.7.
Depletion of Stat5b (GeneID 20851) #1 came out at: GFP, % of control 48.3; viability (ATP), % of control 66.
Against Stat5b (GeneID 20851) #2, the values are GFP, % of control 57.3; viability (ATP), % of control 68.3.
For Stat5b (GeneID 20851) #3, the entry reads GFP, % of control 56; viability (ATP), % of control 76.1.
Tmlhe (GeneID 192289) #1 gave GFP, % of control 60.1; viability (ATP), % of control 95.2.
Tmlhe (GeneID 192289) #2 showed GFP, % of control 23.3; viability (ATP), % of control 45.1.
Against Tmlhe (GeneID 192289) #3, the entry reads GFP, % of control 66.7; viability (ATP), % of control 75.2.
Def8 (GeneID 23854) #1 scored GFP, % of control 63.4; viability (ATP), % of control 80.8.
After knock-down of Def8 (GeneID 23854) #2, the screen gave GFP, % of control 93.9; viability (ATP), % of control 74.8.
With knock-down of Def8 (GeneID 23854) #3 the results were GFP, % of control 119; viability (ATP), % of control 83.9.
Pcdhb3 (GeneID 93874) #1 showed GFP, % of control 88; viability (ATP), % of control 81.9.
Knock-down of Pcdhb3 (GeneID 93874) #2 resulted in: GFP, % of control 99.9; viability (ATP), % of control 78.7.
Rem1 (GeneID 19700) #1 gave GFP, % of control 120 (active); viability (ATP), % of control 101.
For Rem1 (GeneID 19700) #2, the values are GFP, % of control 57.8; viability (ATP), % of control 56.4.
Against Rem1 (GeneID 19700) #3, the entry reads GFP, % of control 82.8; viability (ATP), % of control 80.6.

Entries above whose gene name starts with P or p:
Ptpn4 (GeneID 19258) #1 — GFP, % of control = 69.2; viability (ATP), % of control = 93.2
Ptpn4 (GeneID 19258) #2 — GFP, % of control = 71.7; viability (ATP), % of control = 97.7
Pcdhb3 (GeneID 93874) #1 — GFP, % of control = 88; viability (ATP), % of control = 81.9
Pcdhb3 (GeneID 93874) #2 — GFP, % of control = 99.9; viability (ATP), % of control = 78.7
